Source: paper PMC7710356, “RNF41 regulates the damage recognition receptor Clec9A and antigen cross-presentation in mouse dendritic cells” (eLife, 2020)
Results are given in words; binding and its absence hold for the method and conditions named. In cells and extracts the contact can be indirect. Here binding means that the protein was enriched with, or labelled near, the bait; the list need not be complete.

The chains behind the UniProt entries cited, without tags or fusion partners. Where a name states a change or a piece, a line headed by the entry shows the natural chain unless it says otherwise. Residues count along the entry.
UniProt Q8BRU4: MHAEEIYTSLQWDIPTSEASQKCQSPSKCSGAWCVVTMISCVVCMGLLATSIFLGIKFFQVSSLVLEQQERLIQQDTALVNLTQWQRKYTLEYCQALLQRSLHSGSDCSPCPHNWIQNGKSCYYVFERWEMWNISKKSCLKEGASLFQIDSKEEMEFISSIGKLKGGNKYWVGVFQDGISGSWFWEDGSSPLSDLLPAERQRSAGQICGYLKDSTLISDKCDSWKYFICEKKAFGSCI
UniProt P27824, residues 21-592: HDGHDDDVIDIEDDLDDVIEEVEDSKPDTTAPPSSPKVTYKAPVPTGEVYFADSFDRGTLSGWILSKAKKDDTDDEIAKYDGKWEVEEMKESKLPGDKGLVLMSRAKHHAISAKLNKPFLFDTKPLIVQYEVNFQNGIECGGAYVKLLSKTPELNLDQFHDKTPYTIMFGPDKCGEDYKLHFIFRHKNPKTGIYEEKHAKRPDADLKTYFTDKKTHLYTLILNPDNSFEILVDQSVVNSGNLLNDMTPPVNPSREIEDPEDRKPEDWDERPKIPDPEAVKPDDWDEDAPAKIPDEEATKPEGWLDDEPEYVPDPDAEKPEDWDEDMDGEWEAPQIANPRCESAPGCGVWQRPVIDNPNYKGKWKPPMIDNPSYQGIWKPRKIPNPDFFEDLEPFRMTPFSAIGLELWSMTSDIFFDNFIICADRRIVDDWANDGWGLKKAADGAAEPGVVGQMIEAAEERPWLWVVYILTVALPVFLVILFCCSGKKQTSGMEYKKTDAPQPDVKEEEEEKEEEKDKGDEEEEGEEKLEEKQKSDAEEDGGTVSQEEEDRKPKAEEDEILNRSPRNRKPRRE
UniProt P61619: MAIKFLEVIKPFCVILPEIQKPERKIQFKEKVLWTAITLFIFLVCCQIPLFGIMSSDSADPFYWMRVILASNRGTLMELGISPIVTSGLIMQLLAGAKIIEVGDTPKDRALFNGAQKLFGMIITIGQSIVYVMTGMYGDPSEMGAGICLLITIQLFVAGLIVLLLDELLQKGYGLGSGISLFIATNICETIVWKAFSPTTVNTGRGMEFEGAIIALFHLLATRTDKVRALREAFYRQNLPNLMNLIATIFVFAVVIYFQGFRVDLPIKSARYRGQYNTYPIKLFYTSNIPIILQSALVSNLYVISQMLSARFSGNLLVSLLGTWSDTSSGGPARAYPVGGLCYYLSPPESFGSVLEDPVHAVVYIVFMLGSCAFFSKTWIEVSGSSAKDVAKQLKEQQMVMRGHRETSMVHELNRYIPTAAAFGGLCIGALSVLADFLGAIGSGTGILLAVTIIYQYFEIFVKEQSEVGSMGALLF

B1: Erlin2 (endogenous, 293F cells) (protein, UniProt O94905 1-339)
chain: MAQLGAVVAVASSFFCASLFSAVHKIEEGHIGVYYRGGALLTSTSGPGFHLMLPFITSYKSVQTTLQTDEVKNVPCGTSGGVMIYFDRIEVVNFLVPNAVYDIVKNYTADYDKALIFNKIHHELNQFCSVHTLQEVYIELFDQIDENLKLALQQDLTSMAPGLVIQAVRVTKPNIPEAIRRNYELMESEKTKLLIAAQKQKVVEKEAETERKKALIEAEKVAQVAEITYGQKVMEKETEKKISEIEDAAFLAREKAKADAECYTAMKIAEANKLKLTPEYLQLMKYKAIASNSKIYFGKDIPNMFMDSAGSVSKQFEGLADKLSFGLEDEPLETATKEN
B2: Erlin1 (endogenous, 293F cells) (protein, UniProt O75477 1-348)
chain: MNMTQARVLVAAVVGLVAVLLYASIHKIEEGHLAVYYRGGALLTSPSGPGYHIMLPFITTFRSVQTTLQTDEVKNVPCGTSGGVMIYIDRIEVVNMLAPYAVFDIVRNYTADYDKTLIFNKIHHELNQFCSAHTLQEVYIELFDQIDENLKQALQKDLNLMAPGLTIQAVRVTKPKIPEAIRRNFELMEAEKTKLLIAAQKQKVVEKEAETERKKAVIEAEKIAQVAKIRFQQKVMEKETEKRISEIEDAAFLAREKAKADAEYYAAHKYATSNKHKLTPEYLELKKYQAIASNSKIYFGSNIPNMFVDSSCALKYSDIRTGRESSLPSKEALEPSGENVIQNKESTG
B3: RNF41 full-length (mammalian expression construct in pcDNA3.1+) (enzyme, UniProt Q9H4P4 1-317)
chain: MGYDVTRFQGDVDEDLICPICSGVLEEPVQAPHCEHAFCNACITQWFSQQQTCPVDRSVVTVAHLRPVPRIMRNMLSKLQIACDNAVFGCSAVVRLDNLMSHLSDCEHNPKRPVTCEQGCGLEMPKDELPNHNCIKHLRSVVQQQQTRIAELEKTSAEHKHQLAEQKRDIQLLKAYMRAIRSVNPNLQNLEETIEYNEILEWVNSLQPARVTRWGGMISTPDAVLQAVIKRSLVESGCPASIVNELIENAHERSWPQGLATLETRQMNRRYYENYVAKRIPGKQAVVVMACENQHMGDDMVQEPGLVMIFAHGVEEI

The molecules below were run against FLAG-tagged full length mouse Clec9A (mClec9A-FLAG) (mouse) (UniProt Q8BRU4) (assay: affinity purification with mass spectrometry; 293F cells transfected with mClec9A-FLAG with or without RNF41 or RNF41-ΔRING; anti-FLAG IP in 1% Triton X-100, 150 mM NaCl, 1 mM EDTA, 50 mM Tris pH 6.0; LC-MS/MS).

binding, binds:
calnexin (CANX; endogenous, 293F cells) (from UniProt P27824 21-592)
calreticulin (CALR; endogenous, 293F cells) (from UniProt P27797 18-417)
translocon Sec61A1 (endogenous, 293F cells) (from UniProt P61619 1-476)
B1
B2
B3
